According to patent US20240255529A1, “NOVEL ASSAY AND NOVEL METHODS OF TREATING AGING-RELATED CONDITIONS” (The Progeria Research Foundation, priority 2021, published 2024):

System: progerin
Experiment: Lonafarnib interference assay (HGPS plasma spiked with lonafarnib, SMC progerin immunoassay)
Set-up: species or system human
Conditions: HGPS plasma spiked with 7.92 μg/mL lonafarnib (3×Cmax) in DMSO; p=0.198

SMILES: NC(=O)N1CCC(CC(=O)N2CCC([C@H]3c4ncc(Br)cc4CCc4cc(Cl)cc(Br)c43)CC2)CC1 [lonafarnib]
- interference of lonafarnib with progerin detection (mean progerin vs DMSO control): did not interfere
